Reference: US20210267939A1, “COMPOSITIONS AND METHODS FOR TREATING NAFLD/NASH AND RELATED DISEASE PHENOTYPES” (priority 2018, published 2021)
Some entries share one result that the patent states for a list of compounds.

Test system: Zucker fatty rats
Assay: Liver triacylglyceride content in treated Zucker fatty rats
Type: in vivo
Details: obese Zucker fatty rats, BT2, within seven days
Protocol: Individually housed, male 12 week-old Zucker fatty rats (ZFR, Charles River Laboratories) maintained on a custom control low fat (LF) diet (A11072001, Research Diets) were used for the BDK inhibition and PPM1K overexpression studies. For the BDK inhibition study, ZFR were administered the small molecule BDK inhibitor 3,6-dichlorobenzo[b]thiophene-2-carboxylic acid (BT2, Sigma) daily at a dose of 20 mg/kg dissolved in 200 ul of sterile dimethylsulfoxide by i.p. injection for 7 days. The control group was administered an equal volume of vehicle each day. […]
Plasma concentrations of the alpha-keto acids of leucine (α-keto-isocaproate, KIC), isoleucine (α-keto-β-methylvalerate, KMV) and valine (α-keto-isovalerate, KIV) were measured by LC-MS as previously described (Glynn et al., 2015; White et al., 2016). Other plasma analytes were measured on a Beckman DxC600 autoanalyzer, using reagents for lactate, total cholesterol, and triglycerides from Beckman, and non-esterified fatty acids (NEFA) and ketones (total and 3-hydroxybutyrate) from Wako (Richmond, Va.). Glycerol was measured using reagents from TG-B by Roche Diagnostics (Indianapolis, Ind.). Liver triglycerides were quantified using the triglyceride quantification kit from Abcam. Plasma insulin concentrations were measured with a Millipore EMD Rat insulin ELISA kit.

In the case of `O=C(O)c1sc2cc(Cl)ccc2c1Cl` [BT2, 3,6-dichlorobenzo[b]thiophene-2-carboxylic acid], the “lowering of hepatic triglyceride content” value is reported as greater than 40%.
